From the supplement of paper PMC9433722 come the findings set out here.

Structures can show the parent of a compound that is named as a salt. The list shows a part of the results. Most values come without repeats; read them as rough.

Assay [1] has as its system Saos-2. Briefly: cell viability (CCK-8) relative to DMSO control (% of control); higher = less cytotoxic. The settings on record: 10 µM; 48 h.
The test system of assay [2] is U2OS. The assay is described as above. The settings on record: 10 µM; 48 h.

On to `CNCCC(Oc1ccc(C(F)(F)F)cc1)c1ccccc1` (stereo unspecified) [Fluoxetine·HCl], for which the cell viability amounted to 58.4 in assay [1] and 89.5 in assay [2].
With `OC(c1cc(C(F)(F)F)nc2c(C(F)(F)F)cccc12)C1CCCCN1` (stereo unspecified) [Mefloquine . hydrochloride], the cell viability was 51 in assay [1] and 36.2 in assay [2].
On to `CO/N=C(\C(=O)N[C@@H]1C(=O)N2C(C(=O)[O-])=C(C[N+]3(C)CCCC3)CS[C@H]12)c1csc(N)n1` [Cefepime·2HCl Hydrate], for which the values for the cell viability in assay [1] and in assay [2] were 59.4 and 95.7, respectively.
With `CC[C@@H]1/C=C(\C)C[C@H](C)C[C@H](OC)[C@H]2O[C@@](O)(C(=O)C(=O)N3CCCC[C@H]3C(=O)O[C@H](/C(C)=C/[C@@H]3CC[C@H](Cl)[C@H](OC)C3)[C@H](C)[C@@H](O)CC1=O)[C@H](C)C[C@@H]2OC` [Pimecrolimus], the values for the cell viability in assay [1] and in assay [2] were 92.4 and 118, respectively.
The corresponding values for `Cc1cc(C)cc(OCC2CNC(=O)O2)c1` (stereo unspecified) [Metaxalone] are 98.1 and 104.
On to `CC(=O)NO` [Acetohydroxamic Acid], for which the cell viability in assay [1] is 95.6; in assay [2], 84.5.
For the compound `O=C1[C@H](CC[C@H](O)c2ccc(F)cc2)[C@@H](c2ccc(O)cc2)N1c1ccc(F)cc1` [Ezetimibe], the cell viability was 113 in assay [1] and 91.7 in assay [2].
Take `S=P(N1CC1)(N1CC1)N1CC1`: the values for the cell viability in assay [1] and in assay [2] were 106 and 101, respectively.
Consider `NS(=O)(=O)Cc1noc2ccccc12` [Zonisamide], for which the cell viability in assay [1] is 62; in assay [2], 120.
Taken in the same sequence, the figures for `NCCCCCC(=O)O` [6-Aminocaproic acid] were 113 and 84.7.
In the case of `CCC1(c2ccccc2)C(=O)NCNC1=O` [Primidone], the cell viability is 97.9 in assay [1] and 79.6 in assay [2].
As for `CC(C)NCC(O)c1cc(O)cc(O)c1` (stereo unspecified) [Metaproterenol sulfate], the cell viability in assay [1] came out at 96.9; in assay [2], 91.2.
Taken in the same sequence, the figures for `CCN(Cc1ccncc1)C(=O)C(CO)c1ccccc1` (stereo unspecified) [Tropicamide] were 58.8 and 107.
The corresponding values for `Nc1cc(-c2ccncc2)c[nH]c1=O` [Amrinone] are 66.7 and 97.4.
The corresponding values for `CCN(CC)C(=S)SSC(=S)N(CC)CC` [Disulfiram] are 35 and 94.1.
With `COc1nc(N)nc2c1ncn2[C@@H]1O[C@H](CO)[C@@H](O)[C@@H]1O` [Nelarabine], the values for the cell viability in assay [1] and in assay [2] were 104 and 109, respectively.
Taken in the same sequence, the figures for `CC[C@H](C)C(=O)O[C@H]1C[C@H](O)C=C2C=C[C@H](C)[C@H](CC[C@@H](O)C[C@@H](O)CC(=O)O)[C@H]21` [Pravastatin sodium] were 106 and 79.8.
The corresponding values for `CNC(=C[N+](=O)[O-])NCCSCc1csc(CN(C)C)n1` [Nizatidine] are 107 and 100.
The corresponding values for `C=CC1=C(C(=O)O)N2C(=O)[C@@H](NC(=O)/C(=N\O)c3csc(N)n3)[C@H]2SC1` [Cefdinir] are 117 and 89.1.
As for `Cn1c(=O)c2[nH]cnc2n(C)c1=O` [Oxtriphylline], the cell viability in assay [1] is 109; in assay [2] it was 118.
`CC1=Nc2ccc(Cl)cc2S(=O)(=O)N1` [Diazoxide]: the cell viability in assay [1] is 65.6; in assay [2] it was 101.
`CC1COc2c(N3CCN(C)CC3)c(F)cc3c(=O)c(C(=O)O)cn1c23` (stereo unspecified) [Ofloxacin]: the results for the cell viability in assay [1] and in assay [2] were 68.5 and 92.8, respectively.
Taken in the same sequence, the figures for `CC(C)(C)NCC(O)COc1cccc2c1CC(O)C(O)C2` (stereo unspecified) [Nadolol] were 112 and 94.4.
As to `NC(N)=Nc1nc(CSCC/C(N)=N/S(N)(=O)=O)cs1` [Famotidine], the cell viability in assay [1] is 66; in assay [2], 95.1.
The corresponding values for `Cc1cccc(C)c1OCC(C)N` (stereo unspecified) [Mexiletine·HCl] are 103 and 107.
The corresponding values for `CC(=O)Oc1ccc(C(c2ccc(OC(C)=O)cc2)c2ccccn2)cc1` [Bisacodyl] are 68.5 and 103.
Taken in the same sequence, the figures for `CCOC(=O)[C@H](CCc1ccccc1)N[C@@H](C)C(=O)N1[C@H](C(=O)O)C[C@@H]2CCC[C@@H]21` [Ramipril] were 70 and 117.
For `C[C@@H](O[C@H]1OCCN(Cc2n[nH]c(=O)[nH]2)[C@H]1c1ccc(F)cc1)c1cc(C(F)(F)F)cc(C(F)(F)F)c1` [Aprepitant], the cell viability in assay [1] was 64.9; in assay [2] it was 95.2.
